No constants are given. Whether binding was seen depends on the method and setting. Binding seen in cells or lysates may run through a third protein. A yes stands for co-enrichment or nearness to the bait. Other partners may have been found.

Chains of the proteins cited; added tags and fusions are not shown.
UniProt Q923J1: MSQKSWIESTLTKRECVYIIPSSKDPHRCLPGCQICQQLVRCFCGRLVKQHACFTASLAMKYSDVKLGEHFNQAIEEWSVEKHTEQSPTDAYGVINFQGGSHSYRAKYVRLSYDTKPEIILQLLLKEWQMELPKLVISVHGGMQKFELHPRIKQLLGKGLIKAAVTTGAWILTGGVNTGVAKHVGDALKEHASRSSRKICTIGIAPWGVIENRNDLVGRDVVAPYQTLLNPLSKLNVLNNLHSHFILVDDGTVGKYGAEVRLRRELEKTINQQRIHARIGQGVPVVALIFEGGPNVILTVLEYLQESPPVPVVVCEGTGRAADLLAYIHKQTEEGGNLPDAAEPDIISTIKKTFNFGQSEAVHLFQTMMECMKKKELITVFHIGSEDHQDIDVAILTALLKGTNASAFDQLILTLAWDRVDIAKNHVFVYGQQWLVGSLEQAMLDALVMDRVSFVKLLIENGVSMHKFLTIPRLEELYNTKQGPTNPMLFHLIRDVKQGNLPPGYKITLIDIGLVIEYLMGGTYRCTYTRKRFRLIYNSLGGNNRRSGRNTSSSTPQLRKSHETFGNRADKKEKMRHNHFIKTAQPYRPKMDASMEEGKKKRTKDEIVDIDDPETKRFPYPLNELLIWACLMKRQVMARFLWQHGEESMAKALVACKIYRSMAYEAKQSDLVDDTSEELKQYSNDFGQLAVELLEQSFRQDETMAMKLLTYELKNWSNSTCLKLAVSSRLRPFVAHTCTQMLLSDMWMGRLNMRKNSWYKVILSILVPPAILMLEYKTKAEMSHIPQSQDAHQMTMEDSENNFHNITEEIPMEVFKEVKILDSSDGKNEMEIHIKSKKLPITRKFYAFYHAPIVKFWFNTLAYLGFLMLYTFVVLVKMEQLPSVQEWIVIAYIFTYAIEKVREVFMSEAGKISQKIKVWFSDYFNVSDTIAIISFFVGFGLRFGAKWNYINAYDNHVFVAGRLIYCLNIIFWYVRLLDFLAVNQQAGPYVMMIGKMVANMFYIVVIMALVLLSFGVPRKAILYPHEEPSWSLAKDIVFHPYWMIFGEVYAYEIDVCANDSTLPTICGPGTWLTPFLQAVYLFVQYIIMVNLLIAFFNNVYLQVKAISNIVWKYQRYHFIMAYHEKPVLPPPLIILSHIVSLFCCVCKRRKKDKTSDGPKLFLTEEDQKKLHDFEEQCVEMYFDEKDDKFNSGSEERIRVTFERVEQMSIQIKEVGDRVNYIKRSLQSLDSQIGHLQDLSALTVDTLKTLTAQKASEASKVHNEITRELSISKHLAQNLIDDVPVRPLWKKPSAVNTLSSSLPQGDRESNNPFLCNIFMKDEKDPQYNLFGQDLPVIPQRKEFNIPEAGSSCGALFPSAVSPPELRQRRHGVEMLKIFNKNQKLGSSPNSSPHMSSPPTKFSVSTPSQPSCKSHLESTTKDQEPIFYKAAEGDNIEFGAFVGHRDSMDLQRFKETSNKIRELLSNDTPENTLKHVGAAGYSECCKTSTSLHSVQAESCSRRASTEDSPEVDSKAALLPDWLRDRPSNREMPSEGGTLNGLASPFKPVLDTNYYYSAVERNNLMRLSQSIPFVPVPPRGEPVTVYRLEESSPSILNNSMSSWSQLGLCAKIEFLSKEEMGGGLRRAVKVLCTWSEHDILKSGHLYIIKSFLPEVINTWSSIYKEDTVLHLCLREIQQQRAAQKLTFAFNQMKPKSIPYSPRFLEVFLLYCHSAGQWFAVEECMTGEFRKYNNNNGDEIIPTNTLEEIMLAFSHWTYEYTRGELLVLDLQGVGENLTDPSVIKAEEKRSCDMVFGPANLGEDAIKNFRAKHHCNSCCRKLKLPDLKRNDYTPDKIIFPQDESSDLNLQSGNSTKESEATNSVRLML

In publication PMC8726484 one finds binding data, which are given here for four molecules.

The assay deals with FLAG-tagged mouse TRPM7 of the LTRPC7 cell line (293-TRPM7 cells) (mouse) (UniProt Q923J1). Kind of assay: affinity purification with mass spectrometry; FLAG-TRPM7 immunoprecipitated overnight with M2 FLAG-agarose from LTRPC7 cells grown without tetracycline; lysis buffer 50 mM TRIS (pH 7.4), 150 mM NaCl, 1% Igepal 630; washed with PBS with 1% Tween-20; HEK-293T cells as negative control; 2 biological replicates.

B1: native CNNM4 (endogenous, human cell lines) (protein, UniProt Q6P4Q7 1-775)
chain: MAPVGGGGRPVGGPARGRLLLAAPVLLVLLWALGARGQGSPQQGTIVGMRLASCNKSCGTNPDGIIFVSEGSTVNLRLYGYSLGNISSNLISFTEVDDAETLHKSTSCLELTKDLVVQQLVNVSRGNTSGVLVVLTKFLRRSESMKLYALCTRAQPDGPWLKWTDKDSLLFMVEEPGRFLPLWLHILLITVLLVLSGIFSGLNLGLMALDPMELRIVQNCGTEKERRYARKIEPIRRKGNYLLCSLLLGNVLVNTSLTILLDNLIGSGLMAVASSTIGIVIFGEILPQALCSRHGLAVGANTILLTKFFMLLTFPLSFPISKLLDFFLGQEIRTVYNREKLMEMLKVTEPYNDLVKEELNMIQGALELRTKTVEDIMTQLQDCFMIRSDAILDFNTMSEIMESGYTRIPVFEDEQSNIVDILYVKDLAFVDPDDCTPLKTITRFYNHPVHFVFHDTKLDAMLEEFKKGKSHLAIVQKVNNEGEGDPFYEVLGLVTLEDVIEEIIKSEILDESDMYTDNRSRKRVSEKNKRDFSAFKDADNELKVKISPQLLLAAHRFLATEVSQFSPSLISEKILLRLLKYPDVIQELKFDEHNKYYARHYLYTRNKPADYFILILQGKVEVEAGKENMKFETGAFSYYGTMALTSVPSDRSPAHPTPLSRSASLSYPDRTDVSTAATLAGSSNQFGSSVLGQYISDFSVRALVDLQYIKITRQQYQNGLLASRMENSPQFPIDGCTTHMENLAEKSELPVVDETTTLLNERNSLLHKASHENAI
B1: the binding entry is on record as “binds”.

B2: ARL15, endogenous (protein, UniProt Q9NXU5 1-204)
chain: MSDLRITEAFLYMDYLCFRALCCKGPPPARPEYDLVCIGLTGSGKTSLLSKLCSESPDNVVSTTGFSIKAVPFQNAILNVKELGGADNIRKYWSRYYQGSQGVIFVLDSASSEDDLEAARNELHSALQHPQLCTLPFLILANHQDKPAARSVQEIKKYFELEPLARGKRWILQPCSLDDMDALKDSFSQLINLLEEKDHEAVRM
Regarding B2, the binding entry was “binds”.

B3: native CNNM3 (endogenous, human cell lines) (protein, UniProt Q8NE01 1-707)
chain: MAAAVAAAGRLGWLFAALCLGNAAGEAAPGPRVLGFCLEEDGAAGAGWVRGGAARDTPDATFLLRLFGPGFANSSWSWVAPEGAGCREEAASPAGEWRALLRLRLRAEAVRPHSALLAVRVEPGGGAAEEAAPPWALGLGAAGLLALAALARGLQLSALALAPAEVQVLRESGSEAERAAARRLEPARRWAGCALGALLLLASLAQAALAVLLYRAAGQRAVPAVLGSAGLVFLVGEVVPAAVSGRWTLALAPRALGLSRLAVLLTLPVALPVGQLLELAARPGRLRERVLELARGGGDPYSDLSKGVLRCRTVEDVLTPLEDCFMLDASTVLDFGVLASIMQSGHTRIPVYEEERSNIVDMLYLKDLAFVDPEDCTPLSTITRFYNHPLHFVFNDTKLDAVLEEFKRGKSHLAIVQKVNNEGEGDPFYEVLGLVTLEDVIEEIIRSEILDESEDYRDTVVKRKPASLMAPLKRKEEFSLFKVSDDEYKVTISPQLLLATQRFLSREVDVFSPLRISEKVLLHLLKHPSVNQEVRFDESNRLATHHYLYQRSQPVDYFILILQGRVEVEIGKEGLKFENGAFTYYGVSALTVPSSVHQSPVSSLQPIRHDLQPDPGDGTHSSAYCPDYTVRALSDLQLIKVTRLQYLNALLATRAQNLPQSPENTDLQVIPGSQTRLLGEKTTTAAGSSHSRPGVPVEGSPGRNPGV
Regarding B3, the binding result is on record as “binds”.

B4: PTP4A1 (PRL-1), endogenous (protein, UniProt Q93096 1-173)
chain: MARMNRPAPVEVTYKNMRFLITHNPTNATLNKFIEELKKYGVTTIVRVCEATYDTTLVEKEGIHVLDWPFDDGAPPSNQIVDDWLSLVKIKFREEPGCCIAVHCVAGLGRAPVLVALALIEGGMKYEDAVQFIRQKRRGAFNSKQLLYLEKYRPKMRLRFKDSNGHRNNCCIQ
Consider B4, for which the binding entry was “binds”.
